According to the supplement of paper PMC4604168 (melanoma cell lines):
Some of the results follow. Repeats are few or missing, and single values can be far off.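 Imaging used 1,536-well plates; nuclei positive for cleaved PARP by antibody were divided by total DNA-stained nuclei to yield the apoptosis fraction. Doses for screening kept most cells viable, and cell lines differ markedly in resting and induced cleaved-PARP levels.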

Assays:
Test in all cases: cleaved PARP positive nuclei fraction relative to DMSO control; melanoma cells; higher = more apoptosis
Conditions in all cases: library dose: low library concentration; 72 h
COLO792 = test system: COLO792
COLO800 = test system: COLO800
COLO829 = test system: COLO829
G361 = test system: G361
IPC-298 = test system: IPC-298
IST-MEL1 = test system: IST-MEL1
LB2518-MEL = test system: LB2518-MEL
LOXIMVI = test system: LOXIMVI
MEL-HO = test system: MEL-HO
MZ2-MEL = test system: MZ2-MEL
MeWo = test system: MeWo
RPMI7951 = test system: RPMI7951
RVH-421 = test system: RVH-421
SkMel28 = test system: SkMel28
SkMel2 = test system: SkMel2
SkMel30 = test system: SkMel30
SkMel5 = test system: SkMel5
UACC257 = test system: UACC257
UACC62 = test system: UACC62

Structure (SMILES) | cleaved PARP positive nuclei fraction (COLO792) | cleaved PARP positive nuclei fraction (COLO800) | cleaved PARP positive nuclei fraction (COLO829) | cleaved PARP positive nuclei fraction (G361) | cleaved PARP positive nuclei fraction (IPC-298) | cleaved PARP positive nuclei fraction (IST-MEL1) | cleaved PARP positive nuclei fraction (LB2518-MEL) | cleaved PARP positive nuclei fraction (LOXIMVI) | cleaved PARP positive nuclei fraction (MEL-HO) | cleaved PARP positive nuclei fraction (MZ2-MEL) | cleaved PARP positive nuclei fraction (MeWo) | cleaved PARP positive nuclei fraction (RPMI7951) | cleaved PARP positive nuclei fraction (RVH-421) | cleaved PARP positive nuclei fraction (SkMel28) | cleaved PARP positive nuclei fraction (SkMel2) | cleaved PARP positive nuclei fraction (SkMel30) | cleaved PARP positive nuclei fraction (SkMel5) | cleaved PARP positive nuclei fraction (UACC257) | cleaved PARP positive nuclei fraction (UACC62)
Cn1c(Nc2ccc(C(F)(F)F)cc2)nc2cc(Oc3ccnc(-c4ncc(C(F)(F)F)[nH]4)c3)ccc21 + C=CCn1c(=O)c2cnc(Nc3ccc(N4CCN(C)CC4)cc3)nc2n1-c1cccc(C(C)(C)O)n1 [MK1775] (first compound 0.08 µM, partner dose 0.02 µM) | 998% | 90.9% | 181% | 357% | 179% | 146% | 185% | 55% | 43.4% | 78.1% | 174% | 121% | 192% | 511% | 148% | 104% | 342% | 938% | 1130%
CC(C)(C)c1cnc(CSc2cnc(NC(=O)C3CCNCC3)s2)o1 + O=C(O)c1ccc(-c2c[nH]c3ncc(-c4ccccc4)cc23)cc1C1CCCC1 [GSK650394] (first compound 0.01 µM, partner dose 0.16 µM) | 70.4% | 155% | 126% | 123% | 82.1% | 60.2% | 46.8% | 24.6% | 217% | 69.9% | 76.3% | 63.2% | 74.3% | 427% | 121% | 69.3% | 62.9% | 142% | 81.8%
Clc1ccc(Nc2nnc(Cc3ccncc3)c3ccccc23)cc1 [vatalanib] + Cc1ccc(NC(=O)c2cccc(N(C)C)c2)cc1NC(=O)c1ccc(O)cc1 [ZM336372] (first compound 2 µM, partner dose 2 µM) | 133% | 20.4% | 102% | 125% | 56.6% | 105% | 154% | 151% | 188% | 93.7% | 157% | 97.9% | 138% | 40.9% | 109% | 78.6% | 97.7% | 32.3% | 70.6%
CC(=O)c1c(C)c2cnc(Nc3ccc(N4CCNCC4)cn3)nc2n(C2CCCC2)c1=O [palbociclib] + CC1(C)NC(=O)N(c2ccc([N+](=O)[O-])c(C(F)(F)F)c2)C1=O [nilutamide] (first compound 0.04 µM, partner dose 1 µM) | 120% | 62.8% | 84.4% | 124% | 111% | 208% | 242% | 38.5% | 157% | 34.2% | 55.5% | 121% | 71.9% | 166% | 61% | 89.4% | 67.8% | 115% | 233%
Cc1nc(Nc2ncc(C(=O)Nc3c(C)cccc3Cl)s2)cc(N2CCN(CCO)CC2)n1 [dasatanib] + Cn1cncc1[C@@](N)(c1ccc(Cl)cc1)c1ccc2c(c1)c(-c1cccc(Cl)c1)cc(=O)n2C [tipifarnib] (first compound 0.004 µM, partner dose 0.01 µM) | 161% | 101% | 18.1% | 169% | 109% | 56.8% | 174% | 88.1% | 179% | 121% | 126% | 101% | 141% | 110% | 244% | 218% | 147% | 110% | 225%
Clc1ccc(Nc2nnc(Cc3ccncc3)c3ccccc23)cc1 [vatalanib] + C=CCn1c(=O)c2cnc(Nc3ccc(N4CCN(C)CC4)cc3)nc2n1-c1cccc(C(C)(C)O)n1 [MK1775] (first compound 2 µM, partner dose 0.02 µM) | 119% | 215% | 149% | 178% | 48.5% | 153% | 102% | 63.4% | 117% | 86.8% | 164% | 57.4% | 112% | 176% | 95.8% | 65.6% | 254% | 148% | 198%
COCC[n+]1c2c(n(Cc3cnccn3)c1C)C(=O)c1ccccc1C2=O + CC(C)(C)c1cnc(CSc2cnc(NC(=O)C3CCNCC3)s2)o1 [SNS-032] (first compound 0.0004 µM, partner dose 0.01 µM) | 219% | 170% | 57% | 123% | 297% | 78.9% | 49.5% | 44.7% | 38.2% | 201% | 295% | 72.7% | 179% | 72.3% | 128% | 73.4% | 235% | 167% | 314%
CO[C@@H]1[C@H](N(C)C(=O)c2ccccc2)C[C@H]2O[C@]1(C)n1c3ccccc3c3c4c(c5c6ccccc6n2c5c31)C(=O)NC4 [Midostaurin] + COc1cc2c(Oc3ccc4[nH]c(C)cc4c3F)ncnc2cc1OCCCN1CCCC1 [cediranib] (first compound 0.08 µM, partner dose 0.4 µM) | 156% | 90.2% | 42.6% | 79% | 44.9% | 51.6% | 20.3% | 59% | 134% | 79.3% | 236% | 142% | 44.8% | 271% | 257% | 65.2% | 116% | 81.8% | 76.6%
C=CCNC1=C2C[C@@H](C)C[C@H](OC)[C@H](O)[C@@H](C)/C=C(\C)[C@H](OC(N)=O)[C@@H](OC)/C=C\C=C(/C)C(=O)NC(=CC1=O)C2=O [Tanespimycin] + CN(NC(=O)CC(=O)NN(C)C(=S)c1ccccc1)C(=S)c1ccccc1 [STA4783] (first compound 0.002 µM, partner dose 0.006 µM) | 164% | 68.6% | 108% | 454% | 178% | 85.2% | 68.5% | 25.7% | 134% | 88.6% | 173% | 122% | 89.1% | 232% | 37.3% | 62.6% | 375% | 192% | 148%
COc1cc(Nc2ncc(F)c(Nc3ccc4c(n3)NC(=O)C(C)(C)O4)n2)cc(OC)c1OC [Tamatinib] + CC1(C)NC(=O)N(c2ccc([N+](=O)[O-])c(C(F)(F)F)c2)C1=O [nilutamide] (first compound 0.4 µM, partner dose 1 µM) | 202% | 171% | 115% | 176% | 165% | 34.7% | 103% | 68.8% | 148% | 163% | 54.3% | 71.2% | 26.5% | 74.5% | 94.2% | 59.2% | 186% | 60.1% | 299%
Cc1nc(Nc2ncc(C(=O)Nc3c(C)cccc3Cl)s2)cc(N2CCN(CCO)CC2)n1 [dasatanib] + COc1cc2c(Oc3ccc4[nH]c(C)cc4c3F)ncnc2cc1OCCCN1CCCC1 [cediranib] (first compound 0.004 µM, partner dose 0.4 µM) | 128% | 65.8% | 87.5% | 108% | 41.1% | 115% | 91.5% | 683% | 245% | 46.6% | 38.9% | 168% | 46.8% | 1250% | 106% | 61.6% | 369% | 203% | 216%
C[C@@H]1CCN(C(=O)CC#N)C[C@@H]1N(C)c1ncnc2[nH]ccc12 + Cn1cncc1[C@@](N)(c1ccc(Cl)cc1)c1ccc2c(c1)c(-c1cccc(Cl)c1)cc(=O)n2C [tipifarnib] (first compound 1 µM, partner dose 0.01 µM) | 108% | 73.5% | 81.6% | 95.7% | 50.4% | 46.4% | 92.4% | 46.8% | 60.3% | 54.4% | 52.2% | 50.3% | 91.1% | 108% | 195% | 61% | 45.9% | 49% | 201%
O=C(Nc1cccc(Cl)c1)Nc1ncc(CCNc2ncnc3ccsc23)s1 + COc1cc2c(Oc3ccc4[nH]c(C)cc4c3F)ncnc2cc1OCCCN1CCCC1 [cediranib] (first compound 0.0008 µM, partner dose 0.4 µM) | 159% | 134% | 126% | 103% | 21.7% | 104% | 89.8% | 61.2% | 125% | 136% | 47.2% | 37.9% | 320% | 116% | 71.8% | 57.4% | 76.8% | 32.4% | 42%
COCC[n+]1c2c(n(Cc3cnccn3)c1C)C(=O)c1ccccc1C2=O + CO[C@@H]1[C@H](N(C)C(=O)c2ccccc2)C[C@H]2O[C@]1(C)n1c3ccccc3c3c4c(c5c6ccccc6n2c5c31)C(=O)NC4 [Midostaurin] (first compound 0.0004 µM, partner dose 0.08 µM) | 209% | 236% | 112% | 107% | 116% | 44.1% | 194% | 201% | 78.1% | 621% | 257% | 163% | 271% | 93% | 273% | 88.4% | 117% | 88.6% | 51.2%
C=CCNC1=C2C[C@@H](C)C[C@H](OC)[C@H](O)[C@@H](C)/C=C(\C)[C@H](OC(N)=O)[C@@H](OC)/C=C\C=C(/C)C(=O)NC(=CC1=O)C2=O [Tanespimycin] + COc1cc(Nc2ncc(F)c(Nc3ccc4c(n3)NC(=O)C(C)(C)O4)n2)cc(OC)c1OC [Tamatinib] (first compound 0.002 µM, partner dose 0.4 µM) | 214% | 37.4% | 146% | 60.3% | 56.9% | 102% | 194% | 79.9% | 189% | 132% | 98.7% | 176% | 23.8% | 63.4% | 66.3% | 219% | 30.7% | 271% | 222%

In a second layout: entries from further up.
Structure (SMILES)	cleaved PARP positive nuclei fraction (COLO792)	cleaved PARP positive nuclei fraction (COLO800)	cleaved PARP positive nuclei fraction (COLO829)	cleaved PARP positive nuclei fraction (G361)	cleaved PARP positive nuclei fraction (IPC-298)	cleaved PARP positive nuclei fraction (IST-MEL1)	cleaved PARP positive nuclei fraction (LB2518-MEL)	cleaved PARP positive nuclei fraction (LOXIMVI)	cleaved PARP positive nuclei fraction (MEL-HO)	cleaved PARP positive nuclei fraction (MZ2-MEL)	cleaved PARP positive nuclei fraction (MeWo)	cleaved PARP positive nuclei fraction (RPMI7951)	cleaved PARP positive nuclei fraction (RVH-421)	cleaved PARP positive nuclei fraction (SkMel28)	cleaved PARP positive nuclei fraction (SkMel2)	cleaved PARP positive nuclei fraction (SkMel30)	cleaved PARP positive nuclei fraction (SkMel5)	cleaved PARP positive nuclei fraction (UACC257)	cleaved PARP positive nuclei fraction (UACC62)
Clc1ccc(Nc2nnc(Cc3ccncc3)c3ccccc23)cc1 [vatalanib] + C=CCn1c(=O)c2cnc(Nc3ccc(N4CCN(C)CC4)cc3)nc2n1-c1cccc(C(C)(C)O)n1 [MK1775] (first compound 2 µM, partner dose 0.02 µM)	119%	215%	149%	178%	48.5%	153%	102%	63.4%	117%	86.8%	164%	57.4%	112%	176%	95.8%	65.6%	254%	148%	198%
COCC[n+]1c2c(n(Cc3cnccn3)c1C)C(=O)c1ccccc1C2=O + CC(C)(C)c1cnc(CSc2cnc(NC(=O)C3CCNCC3)s2)o1 [SNS-032] (first compound 0.0004 µM, partner dose 0.01 µM)	219%	170%	57%	123%	297%	78.9%	49.5%	44.7%	38.2%	201%	295%	72.7%	179%	72.3%	128%	73.4%	235%	167%	314%
O=C(Nc1cccc(Cl)c1)Nc1ncc(CCNc2ncnc3ccsc23)s1 + COc1cc2c(Oc3ccc4[nH]c(C)cc4c3F)ncnc2cc1OCCCN1CCCC1 [cediranib] (first compound 0.0008 µM, partner dose 0.4 µM)	159%	134%	126%	103%	21.7%	104%	89.8%	61.2%	125%	136%	47.2%	37.9%	320%	116%	71.8%	57.4%	76.8%	32.4%	42%
C=CCNC1=C2C[C@@H](C)C[C@H](OC)[C@H](O)[C@@H](C)/C=C(\C)[C@H](OC(N)=O)[C@@H](OC)/C=C\C=C(/C)C(=O)NC(=CC1=O)C2=O [Tanespimycin] + COc1cc(Nc2ncc(F)c(Nc3ccc4c(n3)NC(=O)C(C)(C)O4)n2)cc(OC)c1OC [Tamatinib] (first compound 0.002 µM, partner dose 0.4 µM)	214%	37.4%	146%	60.3%	56.9%	102%	194%	79.9%	189%	132%	98.7%	176%	23.8%	63.4%	66.3%	219%	30.7%	271%	222%
